Test results from publication PMC7862700.
This is a selection; strong and weak results do not stand in their true shares. At the low end of the ranking the order means little.

Key:
Assay in all cases: DAPPL (digital affinity profiling via proximity ligation, sequencing)
Details in all cases: 10 mM Tris-HCl pH 7.5, 50 mM NaCl, 1 mM DTT, 4% glycerol, room temperature, 30 min; GST-TFs on glutathione beads, 16-mer random dsDNA library, 0.1% …; high values mean tight binding; double strand, one strand shown; scale: fold enrichment (6-mer frequency, TF over GST control)
[1] = target: T1, ELK1 (UniProt P19419)
T1 sequence: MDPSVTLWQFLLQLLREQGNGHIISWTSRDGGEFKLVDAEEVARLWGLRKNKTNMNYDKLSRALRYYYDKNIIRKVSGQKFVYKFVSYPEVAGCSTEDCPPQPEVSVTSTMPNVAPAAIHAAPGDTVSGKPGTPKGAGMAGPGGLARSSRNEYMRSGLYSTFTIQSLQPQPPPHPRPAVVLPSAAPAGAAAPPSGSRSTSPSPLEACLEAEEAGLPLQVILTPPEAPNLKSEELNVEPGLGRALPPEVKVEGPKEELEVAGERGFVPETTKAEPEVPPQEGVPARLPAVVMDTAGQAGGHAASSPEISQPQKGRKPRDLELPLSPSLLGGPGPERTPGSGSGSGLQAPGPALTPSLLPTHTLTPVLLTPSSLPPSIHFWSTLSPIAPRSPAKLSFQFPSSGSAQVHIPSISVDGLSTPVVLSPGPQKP

[2] = target: T2, ELK3 (UniProt P41970)
T2 sequence: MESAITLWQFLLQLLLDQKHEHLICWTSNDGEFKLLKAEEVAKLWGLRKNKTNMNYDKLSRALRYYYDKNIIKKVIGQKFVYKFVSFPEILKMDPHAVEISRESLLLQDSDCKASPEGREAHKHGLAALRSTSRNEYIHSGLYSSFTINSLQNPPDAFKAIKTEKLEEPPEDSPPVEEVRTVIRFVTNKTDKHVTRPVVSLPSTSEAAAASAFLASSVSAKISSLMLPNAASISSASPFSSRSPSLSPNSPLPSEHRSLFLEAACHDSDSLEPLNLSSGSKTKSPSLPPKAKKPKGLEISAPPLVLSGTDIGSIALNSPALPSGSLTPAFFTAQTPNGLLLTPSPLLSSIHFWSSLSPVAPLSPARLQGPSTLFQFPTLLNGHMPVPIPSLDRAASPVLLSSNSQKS

[3] = target: T3, SPIC (UniProt Q8N5J4)
T3 sequence: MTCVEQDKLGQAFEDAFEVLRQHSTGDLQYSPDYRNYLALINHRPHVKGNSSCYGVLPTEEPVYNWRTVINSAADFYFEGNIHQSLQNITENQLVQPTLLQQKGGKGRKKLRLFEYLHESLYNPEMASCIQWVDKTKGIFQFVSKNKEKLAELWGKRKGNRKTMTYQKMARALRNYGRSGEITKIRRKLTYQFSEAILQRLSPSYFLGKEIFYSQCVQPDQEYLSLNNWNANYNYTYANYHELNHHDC

[4] = target: T4, ETS2 (UniProt P15036)
T4 sequence: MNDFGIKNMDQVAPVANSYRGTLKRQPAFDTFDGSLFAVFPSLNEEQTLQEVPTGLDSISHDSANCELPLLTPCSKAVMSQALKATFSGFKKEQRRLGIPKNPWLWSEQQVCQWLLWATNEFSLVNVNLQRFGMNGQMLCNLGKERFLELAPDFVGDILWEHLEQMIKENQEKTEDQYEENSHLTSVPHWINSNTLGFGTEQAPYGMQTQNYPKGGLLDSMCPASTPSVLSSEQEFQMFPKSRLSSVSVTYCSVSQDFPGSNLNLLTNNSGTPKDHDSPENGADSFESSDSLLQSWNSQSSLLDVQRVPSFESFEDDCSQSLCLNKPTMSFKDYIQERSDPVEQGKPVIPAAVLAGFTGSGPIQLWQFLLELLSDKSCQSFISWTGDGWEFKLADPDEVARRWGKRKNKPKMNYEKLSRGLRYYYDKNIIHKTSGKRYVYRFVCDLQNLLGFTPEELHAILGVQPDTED

[5] = target: T5, ETV3 (UniProt P41162-2)
T5 sequence: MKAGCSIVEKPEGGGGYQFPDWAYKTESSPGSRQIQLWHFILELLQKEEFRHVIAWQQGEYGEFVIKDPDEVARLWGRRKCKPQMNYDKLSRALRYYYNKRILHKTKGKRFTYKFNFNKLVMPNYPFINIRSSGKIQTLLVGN

ATGAGA
binding signal [1]: 0.872
binding signal [2]: 0.919
binding signal [3]: 0.906
binding signal [4]: 0.93
binding signal [5]: 0.822

GACAAG
binding signal [1]: 0.754
binding signal [2]: 0.729
binding signal [3]: 0.783
binding signal [4]: 0.77
binding signal [5]: 0.813

CGGAGG
binding signal [1]: 0.259
binding signal [2]: 0.294
binding signal [3]: 0.233
binding signal [4]: 0.28
binding signal [5]: 0.285

TGAGCG
binding signal [1]: 0.646
binding signal [2]: 0.642
binding signal [3]: 0.571
binding signal [4]: 0.621
binding signal [5]: 0.618

GGGGGA
binding signal [1]: 0.598
binding signal [2]: 0.599
binding signal [3]: 0.58
binding signal [4]: 0.561
binding signal [5]: 0.554

TCCAGG
binding signal [1]: 0.81
binding signal [2]: 0.834
binding signal [3]: 0.818
binding signal [4]: 0.842
binding signal [5]: 0.88

AAAGAG
binding signal [1]: 0.925
binding signal [2]: 0.99
binding signal [3]: 0.802
binding signal [4]: 0.967
binding signal [5]: 0.918

CATAGG
binding signal [1]: 0.736
binding signal [2]: 0.723
binding signal [3]: 0.804
binding signal [4]: 0.769
binding signal [5]: 0.774

GAGGGT
binding signal [1]: 0.539
binding signal [2]: 0.494
binding signal [3]: 0.542
binding signal [4]: 0.551
binding signal [5]: 0.548

AGAGTT
binding signal [1]: 0.872
binding signal [2]: 0.783
binding signal [3]: 0.667
binding signal [4]: 0.838
binding signal [5]: 0.771

GGCAAG
binding signal [1]: 0.627
binding signal [2]: 0.855
binding signal [3]: 0.687
binding signal [4]: 0.666
binding signal [5]: 0.709

GGGGCC
binding signal [1]: 0.552
binding signal [2]: 0.55
binding signal [3]: 0.488
binding signal [4]: 0.576
binding signal [5]: 0.605

CGCATA
binding signal [1]: 0.693
binding signal [2]: 0.748
binding signal [3]: 0.681
binding signal [4]: 0.711
binding signal [5]: 0.697

GATTGA
binding signal [1]: 1.01
binding signal [2]: 0.926
binding signal [3]: 0.931
binding signal [4]: 0.982
binding signal [5]: 0.947

GAGCAA
binding signal [1]: 0.732
binding signal [2]: 0.637
binding signal [3]: 0.722
binding signal [4]: 0.726
binding signal [5]: 0.715

TGTGTA
binding signal [1]: 0.873
binding signal [2]: 0.914
binding signal [3]: 0.882
binding signal [4]: 0.889
binding signal [5]: 0.874

AGAGAC
binding signal [1]: 0.531
binding signal [2]: 0.561
binding signal [3]: 0.575
binding signal [4]: 0.525
binding signal [5]: 0.521

GCCAAG
binding signal [1]: 0.86
binding signal [2]: 0.763
binding signal [3]: 0.818
binding signal [4]: 0.771
binding signal [5]: 0.884

GACAAA
binding signal [1]: 0.992
binding signal [2]: 0.902
binding signal [3]: 0.898
binding signal [4]: 0.952
binding signal [5]: 0.899

GGTGGC
binding signal [1]: 0.712
binding signal [2]: 0.927
binding signal [3]: 0.734
binding signal [4]: 0.718
binding signal [5]: 0.694

CGTGTT
binding signal [1]: 0.832
binding signal [2]: 0.81
binding signal [3]: 0.846
binding signal [4]: 0.842
binding signal [5]: 0.893

GGACGC
binding signal [1]: 0.375
binding signal [2]: 0.373
binding signal [3]: 0.426
binding signal [4]: 0.397
binding signal [5]: 0.382

CGCTGA
binding signal [1]: 0.875
binding signal [2]: 0.843
binding signal [3]: 0.911
binding signal [4]: 0.759
binding signal [5]: 0.945

AAAGGA
binding signal [1]: 0.826
binding signal [2]: 0.807
binding signal [3]: 0.811
binding signal [4]: 0.83
binding signal [5]: 0.933

CCAGCC
binding signal [1]: 0.84
binding signal [2]: 0.864
binding signal [3]: 0.853
binding signal [4]: 0.785
binding signal [5]: 0.788

GGACAG
binding signal [1]: 0.649
binding signal [2]: 0.54
binding signal [3]: 0.546
binding signal [4]: 0.591
binding signal [5]: 0.55

ACAGTC
binding signal [1]: 0.414
binding signal [2]: 0.386
binding signal [3]: 0.372
binding signal [4]: 0.422
binding signal [5]: 0.425

ATCGAG
binding signal [1]: 0.895
binding signal [2]: 0.914
binding signal [3]: 0.951
binding signal [4]: 0.914
binding signal [5]: 0.872

ACGTAG
binding signal [1]: 0.755
binding signal [2]: 0.814
binding signal [3]: 0.827
binding signal [4]: 0.796
binding signal [5]: 0.808

TTCGGA
binding signal [1]: 0.686
binding signal [2]: 0.747
binding signal [3]: 0.726
binding signal [4]: 0.764
binding signal [5]: 0.755
